Experimental data from PubChem BioAssay AID588590 (National Center for Advancing Translational Sciences (NCATS), 2011).
Hit rate of the full screen: of about 390,000 compounds, about 4,000 (1%) were called active. Inconclusive means that the source gave no clear call. Such entries were picked first, then a sample of the others. Calls come from the whole dose curve; as a rule, active = well fitted inhibition curve with a large enough effect; inconclusive = small, poorly fitted or top-dose-only effect, or another doubt; inactive = no such curve, though single readings can be large or run the other way. A potency beside an inconclusive call is a rough fit, not a confirmed value.

Protein sequences, listed by entry. Tags and fused reporters are not part of them. Lines headed by an entry give the natural chain unless they say otherwise; changes in a name come on top.
UniProt Q9UNA4: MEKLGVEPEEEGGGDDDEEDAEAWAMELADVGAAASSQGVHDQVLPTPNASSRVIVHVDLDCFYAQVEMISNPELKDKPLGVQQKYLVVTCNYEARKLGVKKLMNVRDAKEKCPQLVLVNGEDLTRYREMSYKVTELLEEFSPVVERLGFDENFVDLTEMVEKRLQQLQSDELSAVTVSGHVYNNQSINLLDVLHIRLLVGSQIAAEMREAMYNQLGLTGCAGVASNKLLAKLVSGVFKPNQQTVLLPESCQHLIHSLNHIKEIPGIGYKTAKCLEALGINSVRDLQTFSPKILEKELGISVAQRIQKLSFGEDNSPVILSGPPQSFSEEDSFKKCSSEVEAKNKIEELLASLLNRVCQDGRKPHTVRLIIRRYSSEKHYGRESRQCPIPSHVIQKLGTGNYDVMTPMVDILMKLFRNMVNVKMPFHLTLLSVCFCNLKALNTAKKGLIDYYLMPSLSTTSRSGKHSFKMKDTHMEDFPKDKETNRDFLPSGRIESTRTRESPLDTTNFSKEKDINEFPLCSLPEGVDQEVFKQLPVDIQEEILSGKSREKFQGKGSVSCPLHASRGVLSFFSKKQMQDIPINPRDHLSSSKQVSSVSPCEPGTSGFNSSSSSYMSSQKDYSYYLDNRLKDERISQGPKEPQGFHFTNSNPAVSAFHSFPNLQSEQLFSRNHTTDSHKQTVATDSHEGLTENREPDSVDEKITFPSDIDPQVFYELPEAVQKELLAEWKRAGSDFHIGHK

biological target: DNA polymerase iota (Homo sapiens) (UniProt Q9UNA4); assay: qHTS for Inhibitors of Polymerase Iota; settings: Pol iota fluorescent replication assay, 10 min; series mostly up to 115 µM; activity, negative = inhibition: at the top concentration
Method in brief: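 Pol iota at 10 nM preincubated 15 min with compounds at room temperature; reaction started with fluorescent substrate, 50 nM final. Fluorescence read kinetically at 0 and 10 min; buffer-only wells as negative control.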
Potency is the fitted concentration of half-maximal effect.

Compound | Potency | activity, negative = inhibition
O=C(NC1CCN(Cc2ccccc2)C1)c1cc(S(=O)(=O)N2CCOCC2)ccc1Cl (stereo not drawn) | inconclusive: 8.91 µM [inhibitor, partial curve, poor fit] | –
Cc1ccc(-c2cc(C(=O)Nc3ccc4c(c3)OCCO4)c3ccccc3n2)cc1 | inconclusive: 1.58 µM [inhibitor, full curve, poor fit] | –
CC(C)Oc1ccc(C(=O)N/N=C/c2ccc(-c3ccc(S(=O)(=O)Nc4ncccn4)cc3)o2)cc1 | inconclusive: 12.6 µM [inhibitor, full curve, poor fit] | –
COc1cc(C(=O)Oc2cc(C)[nH]c(=O)c2[N+](=O)[O-])cc(OC)c1OC | inconclusive: 14.1 µM [inhibitor, partial curve] | –
Cc1ccc(C)c(N=Cc2cc3c(cc2[N+](=O)[O-])OCO3)c1 | – | inactive: 33.4%
CC(C)OCCCNC(=O)CCCn1c(SCC(=O)c2ccc(Br)cc2)nc2c(sc3ccccc32)c1=O | – | inactive: 25.9%
O=C1c2ccccc2C(=O)C1c1ccccn1 | – | inactive: 23.7%
N#Cc1ccc(OCC(=O)Nc2nc(-c3cccnc3)cs2)cc1 | inconclusive: 17.8 µM [inhibitor, full curve, poor fit] | –
CCc1ccccc1NC(=O)CSc1nnc([C@@H]2CCCN2C(=O)OC(C)(C)C)o1 | inconclusive: 35.5 µM [inhibitor, single point] | –
Cc1ccc(CNC(=O)CCCCn2c(=O)c3ccccc3n(Cc3ccc(Cl)cc3)c2=O)cc1 | inconclusive: 89.1 µM [inhibitor, single point] | –
CC1CCCC(NC(=O)C2N(CCCN3CCCC3)C(=O)C3C(C(=O)Nc4ccc(Cl)cc4)C4C=CC32O4)C1C (stereo not drawn) | – | inactive: -16.5%
O=C(CSc1ccc(-c2ccco2)nn1)Nc1cccc(F)c1 | inconclusive: 20 µM [inhibitor, partial curve, poor fit] | –
CCC1Nc2ncnc(N3CCN(c4ccccc4)CC3)c2N(Cc2ccccc2)C1=O (stereo not drawn) | inconclusive: 20 µM [inhibitor, single point] | –
O=C(O)CCc1ccc(-c2cccs2)n1-c1ccc(C(=O)O)cc1 | inconclusive: 35.5 µM [inhibitor, single point] | –
Cc1cc(C)c2c(=O)cc(C(=O)Nc3ccc(S(=O)(=O)Nc4nc(C)cc(C)n4)cc3)oc2c1 | inconclusive: 70.8 µM [inhibitor, partial curve] | –
CCc1ccc(NC(=S)/N=C(\N)Nc2nc(C)c3cc(CC)ccc3n2)cc1 | – | inactive: 16.1%
CC(=O)C1=C(O)C(=O)N(Cc2ccco2)C1c1ccc2c(c1)OCO2 (stereo not drawn) | inconclusive: 25.1 µM [inhibitor, full curve] | –
COc1ccc(NC(=O)C2CCN(S(=O)(=O)c3ccc4[nH]c(=O)ccc4c3)CC2)c(OC)c1 | – | inactive: 12.7%
COc1cc2sc3cc(NCc4ccc5c(c4)OCO5)ccc3c(=O)c2cc1OC | – | inactive: -0.0479%
CC(=O)N1CCOc2cc(S(=O)(=O)Nc3cccc(C(F)(F)F)c3)c(Cl)cc21 | inconclusive: 89.1 µM [inhibitor, single point] | –
CCOC(=O)c1c(SCCN2CCCC2)n(-c2ccccc2)c(=S)n(-c2ccccc2)c1=O | – | inactive: -17.7%

Compound | Potency | activity, negative = inhibition
CCN(C(=O)COC(=O)c1ccc([N+](=O)[O-])o1)C1CCCCC1 | inconclusive: 89.1 µM [inhibitor, partial curve, poor fit] | –
C=CCNC(=O)c1ccccc1NS(=O)(=O)c1ccc(OC)c(C(=O)N2CCOCC2)c1 | – | inactive: 39.2%
Cc1ccc(O)c(C(CC(=O)NCC2(c3ccccc3)CCCC2)c2ccccc2)c1 (stereo not drawn) | inconclusive: 22.4 µM [inhibitor, single point] | –
O=C(c1cc(-c2ccc(Cl)cc2Cl)on1)N1CCOCC1 | inconclusive: 3.55 µM [inhibitor, partial curve, poor fit] | –
NS(=O)(=O)c1ccc(NC(=S)NC(=O)/C=C/c2ccco2)cc1 | inconclusive: 15.8 µM [inhibitor, full curve, poor fit] | –
CC(=O)Nc1cccc(NC(=O)Nc2cccc(Cl)c2C)c1 | – | inactive: 10.4%
CCOc1ccc(CNC(=O)C2CCN(c3nnc(-n4cccc4CNc4ccc(C)cc4)s3)CC2)cc1OC | – | inactive: -0.133%
CCN(CC)C(=O)C1CC(c2ccc(OC)cc2)=NO1 (stereo not drawn) | inconclusive: 89.1 µM [inhibitor, single point] | –
c1ccc2c(N3CCOCC3)nc(N3CCOCC3)nc2c1 | inconclusive: 35.5 µM [inhibitor, single point] | –
CCCCNC(=O)c1onc(CSc2cccc(OC)c2)c1C(=O)NCCCC | inconclusive: 22.4 µM [inhibitor, single point] | –
CS(=O)(=O)N(CC(=O)Nc1ccccc1C(=O)N1CCOCC1)c1ccc2c(c1)OCO2 | inconclusive: 79.4 µM [inhibitor, single point] | –
CCCCSCCCNC(=O)CN1C(=O)c2cccnc2Oc2ccc(Cl)cc21 | – | inactive: 46%
O=c1c(C(c2ccc(F)cc2)c2c(O)nc3n(c2=O)CCS3)c(O)nc2n1CCS2 | inconclusive: 22.4 µM [inhibitor, partial curve, poor fit] | –
CCOc1ccc(-c2nonc2NC(=O)c2oc3cc(C)ccc3c2C)cc1 | inconclusive: 79.4 µM [inhibitor, partial curve, poor fit] | –
CCn1c(C(=O)NC(C)c2ccc3c(c2)OCCO3)cc2sccc21 (stereo not drawn) | inconclusive: 70.8 µM [inhibitor, single point] | –
Cc1cc(-c2nc3cccnc3s2)ccc1NS(=O)(=O)c1ccc2c(c1)OCCO2 | inconclusive: 63.1 µM [inhibitor, single point] | –
COC(=O)c1ccc(Oc2coc3cc(OCc4cnn(-c5ccccc5)c4)ccc3c2=O)cc1 | inconclusive: 39.8 µM [inhibitor, single point] | –
CCc1cc(Cn2nc(-c3ccccc3)cc2C(=O)NCc2cccc(C(F)(F)F)c2)on1 | inconclusive: 39.8 µM [inhibitor, single point] | –
C/C=C1\COC(C(=O)NCCOCCO)(C(F)(F)F)C=C1C=C1CCCCC1 (stereo not drawn) | – | inactive: 7.86%
O=C(NCCOC(=O)c1ccc(C(=O)OCCNC(=O)c2ccccc2)o1)c1ccccc1 | inconclusive: 89.1 µM [inhibitor, single point] | –
COc1cccc(/C(O)=C2\C(=O)C(=O)N(c3ccccn3)C2c2cccc(OC)c2OC)c1 (stereo not drawn) | inconclusive: 35.5 µM [inhibitor, partial curve, poor fit] | –

Copied from the results shown, two compounds:
Compound | Potency | activity, negative = inhibition
O=C(c1cc(-c2ccc(Cl)cc2Cl)on1)N1CCOCC1 | inconclusive: 3.55 µM [inhibitor, partial curve, poor fit] | –
NS(=O)(=O)c1ccc(NC(=S)NC(=O)/C=C/c2ccco2)cc1 | inconclusive: 15.8 µM [inhibitor, full curve, poor fit] | –

(cont.)

Compound | Potency | activity, negative = inhibition
O=C1Nc2cccnc2N(C(=O)CCl)c2ccccc21 | inconclusive: 25.1 µM [inhibitor, single point] | –
O=C(NN=Cc1cc(Br)c(O)c(Br)c1)c1ccccc1NS(=O)(=O)c1cccs1 | – | inactive: -19.7%
O=C(O)c1cccc(-c2ccc(/C=C3/SC(=Nc4ccccc4)N(Cc4cccnc4)C3=O)o2)c1 | inconclusive: 3.16 µM [inhibitor, full curve, poor fit] | –
COc1cccc(NC(=O)C2C3CCC4C(CCC32)C4(Cl)Cl)c1 (stereo not drawn) | inconclusive: 56.2 µM [inhibitor, partial curve, poor fit] | –
O=C(COc1ccc([N+](=O)[O-])cc1)Nc1cccnc1 | inconclusive: 89.1 µM [inhibitor, single point] | –
COc1ccc(OC)c(NC(=S)N2CCN(Cc3ccccc3)CC2)c1 | inconclusive: 0.316 µM [inhibitor, full curve, poor fit] | –
N=C1/C(=C/c2ccc(OCc3ccccc3)cc2)C(=O)N=C2SC(CC(=O)N3CCOCC3)=NN12 | inconclusive: 56.2 µM [inhibitor, partial curve, poor fit] | –
Cc1ccc(NC(=O)c2cnn3c(C(F)F)cc(-c4ccccc4)nc23)c(C)c1 | inconclusive: 89.1 µM [inhibitor, single point] | –
CCOc1[nH]c(/N=C/c2ccc(OC)cc2)c(C#N)c1C#N | inconclusive: 14.1 µM [inhibitor, full curve, poor fit] | –
COc1ccc(C2=CC(=O)N(Nc3ccccc3)C2=O)cc1 | – | inactive: 20.1%
c1ccc2c(c1)c1c(c3ccccc32)CN2CCCC2C1 (stereo not drawn) | inconclusive: 100 µM [inhibitor, single point] | –
CCOC(=O)C1CCN(C(=O)CN(c2ccc(Oc3ccccc3)cc2)S(C)(=O)=O)CC1 | inconclusive: 100 µM [inhibitor, partial curve, poor fit] | –
Cc1ccc(S(=O)(=O)N2[C@@H](c3ccc(Cl)cc3)C(C(=O)O)=CC[C@H]2c2cccc(Cl)c2)cc1 | – | inactive: 4.06%
Oc1ccc(NCc2cccc(OCc3ccccc3)c2)cc1 | inconclusive: 31.6 µM [inhibitor, single point] | –
S=c1c2c(nc3nc[nH]n13)CCC2 | inconclusive: 15.8 µM [inhibitor, partial curve, poor fit] | –
CCOC(=O)c1c(C)[nH]c(C(=O)N/N=C\c2ccccc2Cl)c1C | inconclusive: 112 µM [inhibitor, partial curve, poor fit] | –
CCN(CC)S(=O)(=O)c1ccc(N2CCCCC2)c(NC(=O)/C=C/c2ccc(OC)c(OC)c2)c1 | – | inactive: 16.1%
CCOC(=O)CSc1nc2ccc(NC(=O)c3ccc(C)cc3)cc2s1 | – | inactive: 14.7%
CCCCOc1[nH]c2nc(-c3ccco3)n(Cc3ccco3)c(=N)c2c1C#N | inconclusive: 22.4 µM [inhibitor, single point] | –
CCN(CC)CCNc1ccc(C)c2sc3ccc(O)cc3c(=O)c12 | inconclusive: 89.1 µM [inhibitor, single point] | –
O=C(O)CCn1nnc(-c2cccs2)n1 | inconclusive: 100 µM [inhibitor, single point] | –
